Values from PubChem BioAssay AID1053208 (Peter MacCallum Cancer Centre, 2014).

- Screen: 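Find knock-downs that sensitise mouse osteosarcoma cells to doxorubicin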 (primary screen)
- Cells: mouse osteosarcoma cells, early-passage culture from an engineered mouse model of fibroblastic bone tumour
- Knock-down reagent: siRNA pool against mouse genes, 40 nM
- Timing: about 120 h (48 h before drug, then 72 h with drug)
- Treatment: doxorubicin 100 nM for 72 h, roughly 30-40% inhibitory dose
- Measurement: 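Luminescent ATP signal taken as viability with or without 100 nM doxorubicin for 72 h; mean of two wells set against non-targeting siRNA and turned into robust z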
- Direction: viability z-score with doxorubicin: higher = more viable cells under doxorubicin; viability z-score without drug: higher = more viable cells with knock-down alone; z-score of drug to no-drug ratio: higher = less drug sensitisation by knock-down
- Call rule: 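Called active if knock-down leaves viability unchanged without drug (z within -2 to 2) but lowers it with doxorubicin (z at or under -2)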
Here is one part, drawn at random, of about 17,000 deposited reagents. 788 of them (4.7%) count as active. 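Calls rest on z-score classes alone; an extra cut-off of viability at most 70% of control was not applied to them.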 Further read-outs or replicates are left out here.

gene knocked down | combined z-score class | viability z-score with doxorubicin | viability z-score without drug | z-score of drug to no-drug ratio | Outcome
Phf8 | no change with or without drug | -1.57 | -0.51 | -1.24 | inactive
Kash5 | no change with or without drug | -0.11 | -0.17 | 0.11 | inactive
Ppp2r5d | no change with or without drug | 0 | 0.34 | -0.11 | inactive
Map2k4 | no change with or without drug | 1.57 | 1.52 | 0.67 | inactive
Defb5 | no change with or without drug | -0.22 | -0.84 | 0.45 | inactive
Arpc2 | no change with or without drug | 1.12 | -0.17 | 1.46 | inactive
Gpc1 | no change with or without drug | 0.34 | 0.17 | 0.34 | inactive
H2bc9 | no change with or without drug | 0.56 | 1.85 | -0.56 | inactive
Ctsd | no change with or without drug | 0.56 | -0.51 | 1.12 | inactive
Nudt2 | no change with or without drug | -0.11 | -0.17 | 0.11 | inactive
Carnmt1 | no change with or without drug | 0.67 | 1.85 | -0.45 | inactive
Sipa1l3 | no change with or without drug | 1.57 | 0.84 | 1.12 | inactive
Negr1 | low cell count without drug only | -0.79 | -2.19 | 0.9 | inactive
Zfp14 | no change with or without drug | 0.67 | 0.17 | 0.67 | inactive
Eif3h | no change with or without drug | -0.45 | -0.51 | 0 | inactive
Ren1 | no change with or without drug | -0.56 | -0.84 | 0.11 | inactive
Gjb1 | high cell count with doxorubicin only | 2.47 | 0 | 2.7 | inactive
Atp13a1 | low cell count with doxorubicin only | -2.25 | -1.18 | -1.57 | active
Txnl1 | no change with or without drug | 0.22 | 0.67 | -0.11 | inactive
Gsdme | no change with or without drug | -0.56 | -0.51 | -0.11 | inactive
A630026L20 | no change with or without drug | -0.67 | -0.51 | -0.22 | inactive
Jak1 | no change with or without drug | 0 | -1.18 | 1.01 | inactive
G6pdx | no change with or without drug | -0.22 | 0.17 | -0.22 | inactive
Acacb | no change with or without drug | 1.12 | 1.01 | 0.56 | inactive
Vmn1r172 | no change with or without drug | -0.67 | -0.51 | -0.22 | inactive
Rfc4 | no change with or without drug | 0 | 0.51 | -0.22 | inactive
Cd177 | no change with or without drug | -1.12 | 1.35 | -1.8 | inactive
Il21 | no change with or without drug | 0.56 | -0.17 | 0.79 | inactive
Or2aj6 | no change with or without drug | -0.11 | -0.51 | 0.34 | inactive
Txndc2 | no change with or without drug | 0 | -0.67 | 0.56 | inactive
Aldh4a1 | no change with or without drug | 0.34 | -0.84 | 1.12 | inactive
Fzd10 | no change with or without drug | -0.56 | 0.34 | -0.67 | inactive
Dusp9 | no change with or without drug | -1.01 | -0.51 | -0.67 | inactive
Dnajb11 | no change with or without drug | 0 | 0.51 | -0.22 | inactive
Retsat | no change with or without drug | 1.57 | 0.84 | 1.12 | inactive
Elapor2 | no change with or without drug | -1.35 | -1.69 | -0.22 | inactive
Muc15 | no change with or without drug | 1.35 | 0.51 | 1.12 | inactive
Adcy9 | no change with or without drug | 1.35 | 0 | 1.57 | inactive
Glcci1 | no change with or without drug | 0.79 | 1.18 | 0.11 | inactive
Pcbd1 | no change with or without drug | 0.9 | 0.51 | 0.67 | inactive
Pitrm1 | no change with or without drug | -0.45 | 0 | -0.34 | inactive
Pcgf5 | no change with or without drug | 0.45 | -1.18 | 1.46 | inactive
Mrgprb2 | no change with or without drug | -0.11 | 0.17 | -0.11 | inactive
Asb14 | low cell count with doxorubicin only | -4.38 | -0.51 | -4.27 | active
Ahctf1 | low cell count with and without drug | -2.47 | -2.87 | -0.67 | inactive
Qsox2 | no change with or without drug | 0.45 | -0.17 | 0.67 | inactive
Zer1 | no change with or without drug | -1.35 | -1.52 | -0.34 | inactive
Acoxl | no change with or without drug | -0.22 | 0.84 | -0.67 | inactive
Cabp2 | no change with or without drug | 0 | 1.35 | -0.79 | inactive
Kif20b | high cell count with doxorubicin only | 2.25 | 1.01 | 1.69 | inactive

6 of these entries in another layout:
Retsat — combined z-score class: no change with or without drug; viability z-score with doxorubicin: 1.57; viability z-score without drug: 0.84; z-score of drug to no-drug ratio: 1.12; Outcome: inactive
Elapor2 — combined z-score class: no change with or without drug; viability z-score with doxorubicin: -1.35; viability z-score without drug: -1.69; z-score of drug to no-drug ratio: -0.22; Outcome: inactive
Muc15 — combined z-score class: no change with or without drug; viability z-score with doxorubicin: 1.35; viability z-score without drug: 0.51; z-score of drug to no-drug ratio: 1.12; Outcome: inactive
Adcy9 — combined z-score class: no change with or without drug; viability z-score with doxorubicin: 1.35; viability z-score without drug: 0; z-score of drug to no-drug ratio: 1.57; Outcome: inactive
Glcci1 — combined z-score class: no change with or without drug; viability z-score with doxorubicin: 0.79; viability z-score without drug: 1.18; z-score of drug to no-drug ratio: 0.11; Outcome: inactive
Pcbd1 — combined z-score class: no change with or without drug; viability z-score with doxorubicin: 0.9; viability z-score without drug: 0.51; z-score of drug to no-drug ratio: 0.67; Outcome: inactive
